Experimental data taken from patent US12729225B2, “Non-canonical SWI/SNF complex and uses thereof” (Dana-Farber Cancer Institute, Inc., priority 2018, dated 2026).

B1: UPF3B (protein, UniProt Q9BZI7 1-483, looked up)
Regulator of nonsense …: MKEEKEHRPKEKRVTLLTPAGATGSGGGTSGDSSKGEDKQDRNKEKKEALSKVVIRRLPPTLTKEQLQEHLQPMPEHDYFEFFSNDTSLYPHMYARAYINFKNQEDIILFRDRFDGYVFLDNKGQEYPAIVEFAPFQKAAKKKTKKRDTKVGTIDDDPEYRKFLESYATDNEKMTSTPETLLEEIEAKNRELIAKKTTPLLSFLKNKQRMREEKREERRRREIERKRQREEERRKWKEEEKRKRKDIEKLKKIDRIPERDKLKDEPKIKVHRFLLQAVNQKNLLKKPEKGDEKELDKREKAKKLDKENLSDERASGQSCTLPKRSDSELKDEKPKRPEDESGRDYREREREYERDQERILRERERLKRQEEERRRQKERYEKEKTFKRKEEEMKKEKDTLRDKGKKAESTESIGSSEKTEKKEEVVKRDRIRNKDRPAMQLYQPGARSRNRLCPPDDSTKSGDSAAERKQESGISHRKEGGEE
B2: ALDH1A1 (protein, UniProt P00352 2-501, looked up)
Aldehyde dehydrogenase 1A1: SSSGTPDLPVLLTDLKIQYTKIFINNEWHDSVSGKKFPVFNPATEEELCQVEEGDKEDVDKAVKAARQAFQIGSPWRTMDASERGRLLYKLADLIERDRLLLATMESMNGGKLYSNAYLNDLAGCIKTLRYCAGWADKIQGRTIPIDGNFFTYTRHEPIGVCGQIIPWNFPLVMLIWKIGPALSCGNTVVVKPAEQTPLTALHVASLIKEAGFPPGVVNIVPGYGPTAGAAISSHMDIDKVAFTGSTEVGKLIKEAAGKSNLKRVTLELGGKSPCIVLADADLDNAVEFAHHGVFYHQGQCCIAASRIFVEESIYDEFVRRSVERAKKYILGNPLTPGVTQGPQIDKEQYDKILDLIESGKKEGAKLECGGGPWGNKGYFVQPTVFSNVTDEMRIAKEEIFGPVQQIMKFKSLDDVIKRANNTFYGLSAGVFTKDIDKAITISSALQAGTVWVNCYGVVSAQCPFGGFKMSGNGRELGEYGFHEYTEVKTVTVKISQKNS
B3: SAP30BP (protein)
chain: MAGKKNVLSSLAVYAEDSEPESDGEAGIEAVGSAAEEKGGLVSDAYGEDDFSRLGGDEDGYEEEEDENSRQSEDDDSETEKPEADDPKDNTEAEKRDPQELVASFSERVRNMSPDEIKIPPEPPGRCSNHLQDKIQKLYERKIKEGMDMNYIIQRKKEFRNPSIYEKLIQFCAIDELGTNYPKDMFDPHGWSEDSYYEALAKAQKIEMDKLEKAKKERTKIEFVTGTKKGTTTNATSTTTTTASTAVADAQKRKSKWDSAIPVTTIAQPTILTTTATLPAVVTVTTSASGSKTTVISAVGTIVKKAKQ
B4: FAM133A (protein, UniProt Q8N9E0 1-248, looked up)
Protein FAM133A: MGKRDNRVAYMNPIAMARWRGPTQSVGPTIQDYLNRPRPTWEEVKKQLENKKTGSKALAEFEEKMNENWKKELEKSREKLLSGNESSSKKRERKKKRKKKSCRSSSSSSSSDSSSSSSDSEDEEKKQGKRRKKKKNRSYKSSQSSTHESESESKESVKKKKKSKDETEKEKDVRSLSKKRKKSYPDDKPLSSESSSESDYEEDVQAKKKRRCEEREQAKEKVKKKKKKQHKKHSKKKKKKSGSSHKSR
B5: APOBR (protein, UniProt Q0VD83 1-1097, looked up)
Apolipoprotein B receptor: MDFLRLYLPGLHQALRGALDSLGTFVSYLLGDAVPTVEREAQAAEELGVVAVGKTGKIVEEEAQEDLEGLRGSQNEGAGRLRGPGDDRRHEVGSSAVEQTWGWGDGSSHGSQAERQDSGAGETAKAARCQEPSAHLEARKKSKAGSGACQDRSGQAQERQESHEQEVNREERLRSWEQEEEEEEVRAREPGMARGAESEWTWHGETEGKAGAVGPKAAGDNREMEQGVREADAGETEEPGAEGAGKGEEVVVVEKACESTRAWGTWGPGAEPEDWGILGREEARTTPGREEARAILDGEEARTISGGEEAETASGGEEAETASGGEEAGTASGGEEAGIASGGEAGTASGGEEAGTASGGEEAGTASGGDEAWTTSGKEEADLLGVRQTEYGAVPGERLLEATGKVWVLEEEGDEEREAEVSPFPKQPQVLGTERTEEAAESQTAGREAVGGQEAGESFEGQVDLRGKEAEMRQDLGIRADRARMEELVQAEEAQEERGSSRDPVAELPSDGEAEGTADLEATPEARPEEELTGEESEAAQTSCGLLGVEWGGLTHSVTKGQGPELMGGAQTPTKQPEEREAGEVELMGVLALSKEEQERSLEAGPRHAGSVKPEASEAFPGAWENRTRKDMERGNTQEDAADGEQREEEETAGGQTLAAEAEGDRESELSEVPEAGGEGLTTQDAGCGTEEGEASVSENQELDGSTGADAGPCPSLGEAYARETEDEEAEADRTSRRGWRLQAVAVGLPDREDAQTGSVAAGIMGGDVVPHISAAGAGEALEGVLGQGWDSKEKEEAAAGEHAGGQEFGLEGSAEEEVTGRGSQVEAFESREGGPWGGRVEAEESAGAEDSCGLDPAGSQTARAEGMGAMVEAGGLLEKWTLLEEEAVGWQEREQREDSEGRCGDYHPEGEAPRLLDAEGLMVTGGRRAEAKETEPESLEHVRGQEEQPTHQAPAEAAPESVGEAETAEAMGSARGGAANSWSEAPLPGSLLDVSVPRSRVHLSRSSSQRRSRPSFRRTPAWEQQEEPPAPNPPEEELSAPEQRPLQLEEPLEPSPLRHDGTPVPARRRPLGHGFGLAHPGMMQELQARLGRPKPQ
B6: SRSF2 (protein, UniProt Q01130 2-221, looked up)
Serine/arginine-rich splicing …: SYGRPPPDVEGMTSLKVDNLTYRTSPDTLRRVFEKYGRVGDVYIPRDRYTKESRGFAFVRFHDKRDAEDAMDAMDGAVLDGRELRVQMARYGRPPDSHHSRRGPPPRRYGGGGYGRRSRSPRRRRRSRSRSRSRSRSRSRSRYSRSKSRSRTRSRSRSTSKSRSARRSKSKSSSVSRSRSRSRSRSRSRSPPPVSKRESKSRSRSKSPPKSPEEEGAVSS
B7: ##IRAK2 (protein, UniProt O43187 1-625, looked up)
Interleukin-1 …: MACYIYQLPSWVLDDLCRNMDALSEWDWMEFASYVITDLTQLRKIKSMERVQGVSITRELLWWWGMRQATVQQLVDLLCRLELYRAAQIILNWKPAPEIRCPIPAFPDSVKPEKPLAASVRKAEDEQEEGQPVRMATFPGPGSSPARAHQPAFLQPPEEDAPHSLRSDLPTSSDSKDFSTSIPKQEKLLSLAGDSLFWSEADVVQATDDFNQNRKISQGTFADVYRGHRHGKPFVFKKLRETACSSPGSIERFFQAELQICLRCCHPNVLPVLGFCAARQFHSFIYPYMANGSLQDRLQGQGGSDPLPWPQRVSICSGLLCAVEYLHGLEIIHSNVKSSNVLLDQNLTPKLAHPMAHLCPVNKRSKYTMMKTHLLRTSAAYLPEDFIRVGQLTKRVDIFSCGIVLAEVLTGIPAMDNNRSPVYLKDLLLSDIPSSTASLCSRKTGVENVMAKEICQKYLEKGAGRLPEDCAEALATAACLCLRRRNTSLQEVCGSVAAVEERLRGRETLLPWSGLSEGTGSSSNTPEETDDVDNSSLDASSSMSVAPWAGAATPLLPTENGEGRLRVIVGREADSSSEACVGLEPPQDVTETSWQIEINEAKRKLMENILLYKEEKVDSIELFGP
B8: ##UTP14C (protein, UniProt Q5TAP6 1-766, looked up)
U3 small nucleolar …: MNVNQVAENLALSHQEELVDLPKNYPLSENEDEGDSDGERKHQKLLEAIISLDGKNRRKLAERSEASLKVSEFSVSSEGSGEKLGLADLLEPVKTSSSLATVKKQLNRVKSKKVVELPLNKEKIEQIHREVAFSKTSQVLSKWDPIILKNQQAEQLVFPLGKEQPAIAPIEHALSGWKARTPLEQEIFNLLHKNKQPVTDPLLTPMEKASLQAMSLEEAKMHRAELQRARALQSYYEAKARKEKKIKSKKYHKVVKKGKAKKALKEFEQLQKVNPTVALEEMEKIENARMMERMSLKHQNSGKWAKSKAIMAKYDLEARQAMQEQLAKNKELTQKLQVASESEEEEGGTEVEELLVPHVANEVQMNVDGPNPWMFRSCTSDTKEAATQEDPEQVPELAAHEVSASEAEERPVAEEEILLREFEERQSLRKRSELNQDAEPASSQETKDSSSQEVLSELRALSQKLKEKHQSRKQKASSEGTVPQVQREEPAPEEAEPLLLQRSERVQTLEELEELGKEDCFQNKELPRPVLEGQQSERTPNNRPDAPKEKKEKEQLINLQNFLTTQSPSVRSLAVPTIIEELEDEEERDQRQMIKEAFAGDDVIRDFLKEKREAVEASKPKDVDLTLPGWGEWGGVGLKPSAKKRRQFLIKAPEGPPRKDKNLPNVIISEKRNIHAAAHQVQVLPYPFTHHRQFERTIQTPIGSTWNTQRAFQKLTTPKVVTKPGHIIKPIKAEDVGYQSSSRSDLPVIQRNPKRITTRHNKEEKL
B9: ##BOK (protein, UniProt Q9UMX3 1-212, looked up)
Bcl-2-related ovarian killer …: MEVLRRSSVFAAEIMDAFDRSPTDKELVAQAKALGREYVHARLLRAGLSWSAPERAAPVPGRLAEVCAVLLRLGDELEMIRPSVYRNVARQLHISLQSEPVVTDAFLAVAGHIFSAGITWGKVVSLYAVAAGLAVDCVRQAQPAMVHALVDCLGEFVRKTLATWLRRRGGWTDVLKCVVSTDPGLRSHWLVAALCSFGRFLKAAFFVLLPER
B10: BRIX1 (protein, UniProt Q8TDN6 1-353, looked up)
Ribosome biogenesis protein …: MAATKRKRRGGFAVQAKKPKRNEIDAEPPAKRHATAEEVEEEERDRIPGPVCKGKWKNKERILIFSSRGINFRTRHLMQDLRMLMPHSKADTKMDRKDKLFVINEVCEMKNCNKCIYFEAKKKQDLYMWLSNSPHGPSAKFLVQNIHTLAELKMTGNCLKGSRPLLSFDPAFDELPHYALLKELLIQIFSTPRYHPKSQPFVDHVFTFTILDNRIWFRNFQIIEEDAALVEIGPRFVLNLIKIFQGSFGGPTLYENPHYQSPNMHRRVIRSITAAKYREKQQVKDVQKLRKKEPKTLLPHDPTADVFVTPAEEKPIEIQWVKPEPKVDLKARKKRIYKRQRKMKQRMDSGKTK
B11: RBM39 (protein, UniProt Q14498 2-530, looked up)
RNA-binding protein 39: ADDIDIEAMLEAPYKKDENKLSSANGHEERSKKRKKSKSRSRSHERKRSKSKERKRSRDRERKKSKSRERKRSRSKERRRSRSRSRDRRFRGRYRSPYSGPKFNSAIRGKIGLPHSIKLSRRRSRSKSPFRKDKSPVREPIDNLTPEERDARTVFCMQLAARIRPRDLEEFFSTVGKVRDVRMISDRNSRRSKGIAYVEFVDVSSVPLAIGLTGQRVLGVPIIVQASQAEKNRAAAMANNLQKGSAGPMRLYVGSLHFNITEDMLRGIFEPFGRIESIQLMMDSETGRSKGYGFITFSDSECAKKALEQLNGFELAGRPMKVGHVTERTDASSASSFLDSDELERTGIDLGTTGRLQLMARLAEGTGLQIPPAAQQALQMSGSLAFGAVAEFSFVIDLQTRLSQQTEASALAAAASVQPLATQCFQLSNMFNPQTEEEVGWDTEIKDDVIEECNKHGGVIHIYVDKNSAQGNVYVKCPSIAAAIAAVNALHGRWFAGKMITAAYVPLPTYHNLFPDSMTATQLLVPSRR

System: mSWI/SNF complexes
Assay: mSWI/SNF complex purification with HA-tagged baits and mass spectrometry (peptide counts)
Set-up: species or system human
[1] = 293_HA-BRD7 bait purification, mass spectrometry, total peptide count per identified protein
[2] = 293_HA-BRD7 bait purification, mass spectrometry, unique peptide count per identified protein
[3] = 293_HA-BRD7: HA-BRD7 bait purification, total peptide count per co-purified protein
[4] = 293_HA-BRD7: HA-BRD7 bait purification, unique peptide count per co-purified protein

Row | Molecule | Total [1] | Unique [2] | Total [3] | Unique [4]
1 | B1 | 1 | 1 | – | –
2 | B2 | 1 | 1 | – | –
3 | B3 | 1 | 1 | – | –
4 | B4 | 1 | 1 | – | –
5 | B5 | 1 | 1 | – | –
6 | B6 | 1 | 1 | – | –
7 | B7 | 1 | 1 | – | –
8 | B8 | 1 | 1 | – | –
9 | B9 | 1 | 1 | – | –
10 | B10 | – | – | 14 | 11
11 | B11 | – | – | 12 | 11
